From PubChem BioAssay AID214 (DTP/NCI, 2004)
The list does not hold the whole screen: it is rich in T/C values a quarter to a half above the control, in often repeated tests (any T/C) and in doses without a T/C. Further doses and runs are listed elsewhere. T/C gives the treated animals as a percentage of the vehicle group. Schedules are NCI's codes, taken here to give the interval after Q, in days (D) or hours (H), and the number of doses after X. Some T/C values are followed by the survivors on the day toxicity was checked, most often the fifth; where none is given, no animal had died by that day. Some entries hold several experiments; the values are given in rising order. Marks such as (2×) say how often a value occurs here. Some entries give survivors of the animals treated and no T/C: the source holds a T/C of zero for them, seemingly a mark for toxic or unscored doses. Survivors were counted at the toxicity check, usually on the fifth day, unless a day is given; later deaths do not show.

System: B6C3F1 mice, colon carcinoma 38 s.c., T/C
Assay: NCI In Vivo Anticancer Drug Screen. Data for tumor model Colon Carcinoma 38 (subcutaneous) in B6C3F1 mice
Details: T/C endpoint: median tumor weight (est.), schedule: Q07DX002 (ip), higher T/C = larger tumour; for T/C: evaluated on day 20
Procedure: The antitumor activity of compounds was measured in mice bearing transplantable tumors. Survival or tumor size were measured and the results are expressed as the measurement made in the treated group (T) divided by the measurement made in the vehicle treated control group (C). The tumor model used in this assay is Colon Carcinoma 38 (subcutaneous) in B6C3F1 mice

[1] = dose: 20.0 mg/kg/injection, vehicle: Klucel (hydroxypropylcellulose) (HPC)
[2] = dose: 40.0 mg/kg/injection, vehicle: Klucel (hydroxypropylcellulose) (HPC)
[3] = dose: 80.0 mg/kg/injection, vehicle: Klucel (hydroxypropylcellulose) (HPC)
[4] = dose: 24.0 mg/kg/injection, vehicle: saline
[5] = dose: 48.0 mg/kg/injection, vehicle: saline
[6] = dose: 400.0 mg/kg/injection, vehicle: saline with Tween-80
[7] = dose: 800.0 mg/kg/injection, vehicle: saline with Tween-80
[8] = dose: 80.0 mg/kg/injection, vehicle: saline with Tween-80
[9] = dose: 160.0 mg/kg/injection, vehicle: saline with Tween-80

## O=NN(CCCl)C(=O)NC1CCCCC1
dose: 10.0 mg/kg/injection, vehicle: Klucel (hydroxypropylcellulose) (HPC)
  T/C: 40 (2×), 45, 80 [9 of 10 alive on day 20], 85, 88, 93 [9 of 10 alive on day 20], 99, 111, 204 % of control
[1]
  T/C: 27, 37, 40 [9 of 10 alive on day 20], 41 (2×), 83, 102, 117, 155 % of control
  survivor count: 3 of 10 on day 20
[2]
  T/C: 7 [8 of 10 alive on day 20], 12 [8 of 10 alive on day 20], 15, 20, 22 [9 of 10 alive on day 20], 26, 51, 61, 80 % of control [8 of 10 alive on day 20]
  survivor count: 1 of 10 on day 20
[3]
  T/C: 57 and 74 % of control [9 of 10 alive on day 20]
  survivor count: 0 of 10 on day 20, 1 of 10 on day 20, 3 of 10 on day 20, 5 of 10 on day 20
dose: 160.0 mg/kg/injection, vehicle: Klucel (hydroxypropylcellulose) (HPC)
  survivor count: 0 of 10 on day 20, 1 of 10 on day 20, 2 of 10 on day 20, 4 of 10 on day 20

## OC(C1CO1)C(O)C1CO1 (centres undefined)
dose: 1.0 mg/kg/injection, vehicle: saline
  T/C: 148 % of control
dose: 16.0 mg/kg/injection, vehicle: saline
  survivor count: 6 of 10 on day 20

## CCn1cnc2c(=S)nc[nH]c21
dose: 400.0 mg/kg/injection, vehicle: suspension in saline
  survivor count: 5 of 10 on day 20

## O=CC(NC(=O)N(CCCl)N=O)C(O)C(O)C(O)CO (centres undefined)
dose: 3.0 mg/kg/injection, vehicle: saline
  T/C: 71 (2×), 74, 87, 90, 93, 103, 120, 126 % of control
dose: 6.0 mg/kg/injection, vehicle: saline
  T/C: 53 [9 of 10 alive on day 20] (2×), 71, 72, 75, 102, 114, 119, 147 % of control
dose: 12.0 mg/kg/injection, vehicle: saline
  T/C: 38, 42 (2×), 43, 55 [9 of 10 alive on day 20], 58, 66, 108, 141 % of control
[4]
  T/C: 9, 12 [9 of 10 alive on day 20] (2×), 15, 28, 36, 43 [8 of 10 alive on day 20], 120 % of control
  survivor count: 6 of 10 on day 20
[5]
  T/C: 14 % of control [8 of 10 alive on day 20]
  survivor count: 0 of 10 on day 20, 2 of 10 on day 20, 3 of 10 on day 20

## [Cl][Hg][Cl]
dose: 6.25 mg/kg/injection, vehicle: saline
  survivor count: 5 of 10 on day 20
dose: 12.5 mg/kg/injection, vehicle: saline
  survivor count: 0 of 10 on day 20
dose: 25.0 mg/kg/injection, vehicle: saline
  survivor count: 0 of 10 on day 20

## CC[C@@H](C)[C@@H]1NC(=O)C(NC(=O)C(CC(C)C)N(C)C(=O)C2CCCN2C(=O)C(C)O)C(C)OC(=O)C(Cc2ccc(OC)cc2)N(C)C(=O)C2CCCN2C(=O)C(CC(C)C)NC(=O)C(C)C(=O)C(C(C)C)OC(=O)C[C@H]1O (some centres undefined)
dose: 75.0 micrograms/kg/injection, vehicle: distilled water + alcohol
  T/C: 134 % of control [9 of 10 alive on day 20]
dose: 150.0 micrograms/kg/injection, vehicle: distilled water + alcohol
  T/C: 131 % of control
dose: 300.0 micrograms/kg/injection, vehicle: distilled water + alcohol
  T/C: 126 % of control [9 of 10 alive on day 20]
dose: 1200.0 micrograms/kg/injection, vehicle: distilled water + alcohol
  survivor count: 1 of 10 on day 20

## CC[C@H](CC[C@@H](C)C1CC[C@H]2[C@@H]3CC=C4C[C@@H](OP(=O)(N5CC5)N5CC5)CC[C@]4(C)[C@H]3CC[C@]12C)C(C)C (some centres undefined)
dose: 1800.0 mg/kg/injection, vehicle: saline with Tween-80
  survivor count: 5 of 10 on day 20

## CN(C)C1C(=O)C(C(=O)NP(=O)(NCCCO)N(CCCl)CCCl)=C(O)C2(O)C(=O)C3=C(O)c4c(O)cccc4C(C)(O)C3CC12 (centres undefined)
[6]
  survivor count: 5 of 10 on day 20
[7]
  survivor count: 1 of 10 on day 20

## CCOC(=O)c1c[nH]c2oc(/C=N/N3CC(CN4CCOCC4)OC3=O)cc2c1=O (centres undefined)
dose: 1200.0 mg/kg/injection, vehicle: other
  survivor count: 0 of 10 on day 20

## Nc1ccc2ccc(NS(=O)(=O)N3CCCCC3)cc2c1
dose: 100.0 mg/kg/injection, vehicle: saline with Tween-80
  T/C: 126 % of control
[7]
  survivor count: 5 of 10 on day 20
dose: 1600.0 mg/kg/injection, vehicle: saline with Tween-80
  survivor count: 0 of 10 on day 20

## CCCCNc1ccc2nnc(C)n2n1
dose: 100.0 mg/kg/injection, vehicle: DMSO
  T/C: 132 % of control
dose: 400.0 mg/kg/injection, vehicle: DMSO
  survivor count: 2 of 10 on day 20
dose: 800.0 mg/kg/injection, vehicle: DMSO
  survivor count: 0 of 10 on day 20

## COc1ccc2cc1Oc1ccc(cc1)C[C@H]1c3cc(c(OC)cc3CCN1C)Oc1c(OC)c(OC)cc3c1[C@H](C2)N(C)CC3
dose: 300.0 mg/kg/injection, vehicle: saline with Tween-80
  T/C: 131 % of control
dose: 600.0 mg/kg/injection, vehicle: saline with Tween-80
  survivor count: 3 of 10 on day 20
dose: 1200.0 mg/kg/injection, vehicle: saline with Tween-80
  survivor count: 2 of 10 on day 20

## NC(CCl)=NCC12CC3CC(CC(C3)C1)C2
dose: 200.0 mg/kg/injection, vehicle: Klucel (hydroxypropylcellulose) (HPC)
  survivor count: 2 of 7 on day 20 and 6 of 10 on day 20

## Nc1nc(=S)c2ncn(C3CC(O)C(CO)O3)c2[nH]1 (centres undefined)
dose: 5.0 mg/kg/injection, vehicle: saline with Tween-80
  T/C: 12, 24 [9 of 10 alive on day 20], 31, 35, 45, 55 (2×), 56, 108, 181 % of control
dose: 10.0 mg/kg/injection, vehicle: saline with Tween-80
  T/C: 10, 11, 14, 27, 36 (2×), 52, 55, 88, 98 % of control
dose: 20.0 mg/kg/injection, vehicle: saline with Tween-80
  T/C: 12 (2×), 15, 27, 28, 35, 78, 79, 116 % of control [9 of 10 alive on day 20]
dose: 40.0 mg/kg/injection, vehicle: saline with Tween-80
  T/C: 3, 5, 9, 10, 12, 14 (2×), 18, 51, 57 % of control
[8]
  T/C: 5 [8 of 10 alive on day 20], 6, 7, 15 (2×), 16, 22, 36 % of control [9 of 10 alive on day 20]
  survivor count: 6 of 10 on day 20
[9]
  T/C: 1, 2, 5 [8 of 10 alive on day 20], 24 % of control [9 of 10 alive on day 20]
  survivor count: 6 of 10 on day 20

## O=C(CCCCCCC(=O)ON1C(=O)CCC1=O)ON1C(=O)CCC1=O
[6]
  T/C: 141 % of control
[7]
  survivor count: 0 of 10 on day 20
